Measurements: the supplement of paper PMC10849652
The other results are listed elsewhere or left out. Residues, ends and D or L forms follow the SMILES beside them. *: point of attachment. Cbz = O=C(OCc1ccccc1)*

The chains behind the UniProt entries cited, without tags or fusion partners. Where a name states a change or a piece, a line headed by the entry shows the natural chain unless it says otherwise.
UniProt Q14135: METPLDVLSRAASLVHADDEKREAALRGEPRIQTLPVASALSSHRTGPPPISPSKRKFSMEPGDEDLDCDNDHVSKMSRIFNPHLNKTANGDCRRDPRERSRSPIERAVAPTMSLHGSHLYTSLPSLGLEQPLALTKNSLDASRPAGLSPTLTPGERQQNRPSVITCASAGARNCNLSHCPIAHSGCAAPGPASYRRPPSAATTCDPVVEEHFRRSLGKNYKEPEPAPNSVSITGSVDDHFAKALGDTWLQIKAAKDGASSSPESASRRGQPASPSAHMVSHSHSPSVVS
UniProt Q6UXN9, whole entry, looked up: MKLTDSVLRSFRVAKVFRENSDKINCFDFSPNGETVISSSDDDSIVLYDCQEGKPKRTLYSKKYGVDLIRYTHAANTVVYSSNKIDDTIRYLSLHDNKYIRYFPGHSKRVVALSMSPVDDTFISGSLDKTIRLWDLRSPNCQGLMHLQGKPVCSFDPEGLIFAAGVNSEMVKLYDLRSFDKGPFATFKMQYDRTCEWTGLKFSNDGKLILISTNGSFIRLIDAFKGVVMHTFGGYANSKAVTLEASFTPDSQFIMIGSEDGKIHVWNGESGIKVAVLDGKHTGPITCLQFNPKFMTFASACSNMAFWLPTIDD
UniProt Q9BRG1: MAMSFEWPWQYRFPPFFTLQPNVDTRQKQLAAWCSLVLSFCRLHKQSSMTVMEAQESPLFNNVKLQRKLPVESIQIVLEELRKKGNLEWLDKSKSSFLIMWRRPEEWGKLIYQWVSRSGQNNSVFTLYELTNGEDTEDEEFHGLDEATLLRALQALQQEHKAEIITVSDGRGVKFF
UniProt Q96FK6: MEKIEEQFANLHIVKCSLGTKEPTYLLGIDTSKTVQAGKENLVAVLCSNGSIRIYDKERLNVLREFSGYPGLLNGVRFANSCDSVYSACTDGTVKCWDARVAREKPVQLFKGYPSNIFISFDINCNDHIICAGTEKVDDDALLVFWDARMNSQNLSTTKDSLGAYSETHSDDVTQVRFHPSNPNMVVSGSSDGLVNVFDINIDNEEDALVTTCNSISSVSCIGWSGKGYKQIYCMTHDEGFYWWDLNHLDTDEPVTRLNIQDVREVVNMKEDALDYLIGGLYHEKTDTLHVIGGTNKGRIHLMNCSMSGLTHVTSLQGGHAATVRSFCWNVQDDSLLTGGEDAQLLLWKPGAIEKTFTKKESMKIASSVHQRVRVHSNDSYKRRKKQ
UniProt O75351, whole entry, looked up: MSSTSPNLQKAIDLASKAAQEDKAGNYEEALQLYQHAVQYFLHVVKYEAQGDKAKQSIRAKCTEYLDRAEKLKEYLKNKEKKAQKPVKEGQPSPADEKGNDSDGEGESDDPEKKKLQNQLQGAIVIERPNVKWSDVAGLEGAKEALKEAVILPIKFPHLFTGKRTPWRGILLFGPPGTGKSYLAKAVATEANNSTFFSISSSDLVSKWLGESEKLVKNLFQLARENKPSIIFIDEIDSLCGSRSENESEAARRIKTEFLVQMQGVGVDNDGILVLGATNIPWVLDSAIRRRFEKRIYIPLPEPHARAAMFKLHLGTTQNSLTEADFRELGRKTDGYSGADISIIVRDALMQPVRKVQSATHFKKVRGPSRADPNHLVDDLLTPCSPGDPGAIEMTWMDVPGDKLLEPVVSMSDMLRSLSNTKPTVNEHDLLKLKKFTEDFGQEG
UniProt Q9Y4P8: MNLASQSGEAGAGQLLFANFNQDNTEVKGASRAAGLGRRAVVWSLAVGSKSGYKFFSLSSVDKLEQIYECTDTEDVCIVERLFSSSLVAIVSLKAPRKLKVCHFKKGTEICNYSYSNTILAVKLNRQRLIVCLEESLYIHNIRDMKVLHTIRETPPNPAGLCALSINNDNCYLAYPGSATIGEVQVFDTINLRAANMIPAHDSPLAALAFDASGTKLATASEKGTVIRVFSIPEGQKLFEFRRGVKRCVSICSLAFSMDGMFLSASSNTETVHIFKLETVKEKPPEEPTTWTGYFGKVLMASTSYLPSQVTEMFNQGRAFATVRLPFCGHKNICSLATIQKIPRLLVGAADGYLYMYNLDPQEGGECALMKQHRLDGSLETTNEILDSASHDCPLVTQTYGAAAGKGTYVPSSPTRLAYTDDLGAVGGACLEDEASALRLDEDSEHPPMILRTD
UniProt Q9NW82: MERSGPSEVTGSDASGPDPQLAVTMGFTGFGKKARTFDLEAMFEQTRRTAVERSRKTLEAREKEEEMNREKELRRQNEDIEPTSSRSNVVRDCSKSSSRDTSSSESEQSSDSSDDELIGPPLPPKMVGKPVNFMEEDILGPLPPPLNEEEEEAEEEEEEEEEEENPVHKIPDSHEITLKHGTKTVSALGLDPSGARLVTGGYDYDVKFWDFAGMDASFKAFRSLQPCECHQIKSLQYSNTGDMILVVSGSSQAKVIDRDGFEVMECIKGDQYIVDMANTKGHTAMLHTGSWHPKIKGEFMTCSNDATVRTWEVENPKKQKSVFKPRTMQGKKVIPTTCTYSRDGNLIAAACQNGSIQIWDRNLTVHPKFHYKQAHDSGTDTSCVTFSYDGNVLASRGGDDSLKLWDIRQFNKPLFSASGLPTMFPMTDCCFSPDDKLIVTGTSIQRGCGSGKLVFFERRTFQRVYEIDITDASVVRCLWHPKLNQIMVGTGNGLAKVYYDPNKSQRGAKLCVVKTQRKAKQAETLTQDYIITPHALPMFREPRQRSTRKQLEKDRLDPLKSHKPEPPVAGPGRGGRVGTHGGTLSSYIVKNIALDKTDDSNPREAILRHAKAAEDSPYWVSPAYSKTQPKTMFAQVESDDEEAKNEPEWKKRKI
UniProt Q8TAF3: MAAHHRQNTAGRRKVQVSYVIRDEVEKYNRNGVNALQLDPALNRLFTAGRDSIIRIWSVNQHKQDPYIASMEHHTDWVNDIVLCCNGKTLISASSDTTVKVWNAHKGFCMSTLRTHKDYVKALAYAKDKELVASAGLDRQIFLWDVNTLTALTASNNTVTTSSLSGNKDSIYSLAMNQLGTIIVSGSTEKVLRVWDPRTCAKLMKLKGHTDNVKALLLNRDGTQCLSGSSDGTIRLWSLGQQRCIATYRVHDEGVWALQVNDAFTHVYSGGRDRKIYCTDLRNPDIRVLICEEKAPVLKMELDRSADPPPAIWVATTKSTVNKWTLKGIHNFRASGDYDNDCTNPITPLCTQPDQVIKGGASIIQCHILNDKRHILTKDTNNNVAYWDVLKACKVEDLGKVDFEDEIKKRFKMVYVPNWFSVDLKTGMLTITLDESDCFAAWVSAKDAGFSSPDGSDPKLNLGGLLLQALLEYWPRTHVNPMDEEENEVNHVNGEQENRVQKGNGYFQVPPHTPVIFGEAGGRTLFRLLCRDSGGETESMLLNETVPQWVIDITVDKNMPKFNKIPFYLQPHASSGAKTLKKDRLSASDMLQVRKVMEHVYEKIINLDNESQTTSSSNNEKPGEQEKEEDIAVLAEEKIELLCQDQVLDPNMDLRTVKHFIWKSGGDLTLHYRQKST
UniProt Q8TBZ3: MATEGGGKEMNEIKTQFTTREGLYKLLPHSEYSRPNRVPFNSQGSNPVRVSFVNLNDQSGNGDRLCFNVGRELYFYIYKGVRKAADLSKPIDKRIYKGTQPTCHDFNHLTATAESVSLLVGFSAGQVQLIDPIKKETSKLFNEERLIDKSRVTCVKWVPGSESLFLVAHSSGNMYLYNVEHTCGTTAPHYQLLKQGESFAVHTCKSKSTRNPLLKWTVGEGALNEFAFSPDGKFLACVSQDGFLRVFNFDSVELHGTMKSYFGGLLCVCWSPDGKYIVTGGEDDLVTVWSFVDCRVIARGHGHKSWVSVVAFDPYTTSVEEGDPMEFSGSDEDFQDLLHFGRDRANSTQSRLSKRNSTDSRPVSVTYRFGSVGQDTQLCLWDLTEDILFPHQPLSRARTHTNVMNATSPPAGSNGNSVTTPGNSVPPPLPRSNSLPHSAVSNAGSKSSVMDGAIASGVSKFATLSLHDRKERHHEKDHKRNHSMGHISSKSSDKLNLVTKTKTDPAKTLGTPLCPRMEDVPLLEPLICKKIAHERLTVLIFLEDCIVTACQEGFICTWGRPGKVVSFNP
UniProt Q8N9V3: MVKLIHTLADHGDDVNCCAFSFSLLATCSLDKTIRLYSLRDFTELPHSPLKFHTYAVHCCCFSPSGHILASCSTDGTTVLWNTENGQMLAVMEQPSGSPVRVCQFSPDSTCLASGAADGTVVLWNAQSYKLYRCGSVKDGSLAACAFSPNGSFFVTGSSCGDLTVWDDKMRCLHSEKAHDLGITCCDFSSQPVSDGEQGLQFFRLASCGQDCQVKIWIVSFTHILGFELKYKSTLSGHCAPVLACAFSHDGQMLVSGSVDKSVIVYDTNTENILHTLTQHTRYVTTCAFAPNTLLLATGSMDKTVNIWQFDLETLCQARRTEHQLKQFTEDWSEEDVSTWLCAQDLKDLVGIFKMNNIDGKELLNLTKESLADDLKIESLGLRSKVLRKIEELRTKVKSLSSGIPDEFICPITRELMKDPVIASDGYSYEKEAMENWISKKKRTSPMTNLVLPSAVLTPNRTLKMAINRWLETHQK
UniProt Q969T9: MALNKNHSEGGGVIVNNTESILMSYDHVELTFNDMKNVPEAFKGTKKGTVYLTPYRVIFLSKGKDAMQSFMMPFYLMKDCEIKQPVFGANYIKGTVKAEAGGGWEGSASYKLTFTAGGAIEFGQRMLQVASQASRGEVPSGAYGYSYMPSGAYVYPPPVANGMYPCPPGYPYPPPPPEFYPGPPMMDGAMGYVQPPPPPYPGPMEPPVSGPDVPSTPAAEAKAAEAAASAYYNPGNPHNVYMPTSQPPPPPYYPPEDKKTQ
UniProt Q9H6Y2: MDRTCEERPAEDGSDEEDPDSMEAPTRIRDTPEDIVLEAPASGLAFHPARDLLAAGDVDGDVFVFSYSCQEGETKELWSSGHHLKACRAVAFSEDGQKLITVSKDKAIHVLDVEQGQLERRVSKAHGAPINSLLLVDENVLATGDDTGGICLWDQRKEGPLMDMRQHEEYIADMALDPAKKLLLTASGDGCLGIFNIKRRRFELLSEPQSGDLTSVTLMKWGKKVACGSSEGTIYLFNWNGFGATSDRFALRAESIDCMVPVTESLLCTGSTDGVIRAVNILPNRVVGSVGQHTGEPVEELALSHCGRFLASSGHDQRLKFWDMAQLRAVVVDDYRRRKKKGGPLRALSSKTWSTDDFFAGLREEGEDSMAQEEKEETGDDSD
UniProt Q9Y2W2: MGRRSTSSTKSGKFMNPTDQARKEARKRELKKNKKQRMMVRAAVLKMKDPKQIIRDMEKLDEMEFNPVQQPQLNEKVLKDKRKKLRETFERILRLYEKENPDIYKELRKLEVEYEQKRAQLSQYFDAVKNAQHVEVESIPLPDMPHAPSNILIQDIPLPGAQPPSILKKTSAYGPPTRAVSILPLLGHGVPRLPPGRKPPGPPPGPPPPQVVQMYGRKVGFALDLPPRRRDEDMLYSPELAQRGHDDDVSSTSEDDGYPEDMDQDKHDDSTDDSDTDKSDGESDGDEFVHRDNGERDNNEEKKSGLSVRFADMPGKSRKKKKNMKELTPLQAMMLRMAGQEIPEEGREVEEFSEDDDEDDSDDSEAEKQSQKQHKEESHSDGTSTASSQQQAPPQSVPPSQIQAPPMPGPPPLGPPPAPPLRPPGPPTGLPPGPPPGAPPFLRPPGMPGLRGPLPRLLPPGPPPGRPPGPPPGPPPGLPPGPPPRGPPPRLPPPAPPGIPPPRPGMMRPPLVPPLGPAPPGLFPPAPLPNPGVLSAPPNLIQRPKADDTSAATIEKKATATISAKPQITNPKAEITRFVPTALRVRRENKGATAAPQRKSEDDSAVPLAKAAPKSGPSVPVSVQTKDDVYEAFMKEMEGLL

How the values were obtained:
Experiment in all cases: log2 fold change, soluble protein after heating vs DMSO (PISA); higher = thermal stabilisation; K562 cells, 10 uM, 30 min; active = over 0.2 and 3.5 SD of the protein, either way, in both replicates (recomputed)
[1] = compound: C1COCCN1CCN2C3=CC=CC=C3N=C2NC(=O)C4=CC(=CC=C4)[N+](=O)[O-] [IRAK-1-4 Inhibitor I]
Outline: (§1)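 Soluble protein was defined as the supernatant after 21,000xg for 90 min. It came from K562 cells at 2×10^6 cells/mL given 10 μM compound for 30 min, heated in aliquots for 3 min across 48°C-58°C, pooled, and extracted in PBS with 0.5% NP-40 at 4°C, and was quantified by TMTpro 16plex LC-MS/MS with equalised channel sums. Thermal stability against control samples, from duplicates, is reported as log2 fold change.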

[2] = compound: C=CC(=O)N1CCC[C@@H](n2nc(-c3ccc(Oc4ccccc4)cc3)c3c(N)ncnc32)C1 [ibrutinib]
Outline: as §1

[3] = compound: CC(=O)c1cnc2ccc(-c3cc(Cl)c(O)c(Cl)c3)nc2c1N[C@H]1CC[C@H](CN(C)C)CC1
Outline: as §1

[4] = compound: CC(C)(C)Cn1c(N)nc2ccc(-c3[nH]c(C(C)(C)C)nc3-c3ccc(F)cc3)nc21 [ralimetinib]
Outline: as §1

[5] = compound: CC(C)(O)CC(=O)NCCn1ccc2ncnc(Nc3ccc(Oc4cccc(C(F)(F)F)c4)c(Cl)c3)c21
Outline: as §1

[6] = compound: CC(C)C1=C2N=C(C=C(N2N=C1)NCC3=CC=CC=C3)NCCCCCCN
Outline: as §1

[7] = compound: CC(C)C[C@@H](C=O)NC(=O)[C@H](CC(C)C)NC(=O)[C@H](CC(C)C)NC(=O)OCc1ccccc1
Outline: as §1

[8] = compound: CC(C)N(C[C@H]1O[C@@H](n2cnc3c(N)ncnc32)[C@H](O)[C@@H]1O)[C@H]1C[C@@H](CCc2nc3cc(C(C)(C)C)ccc3[nH]2)C1 [pinometostat]
Outline: as §1

[9] = compound: CC1=C(C(CC(=O)N1)C2=CC=C(C=C2)C(F)(F)F)C(=O)NC3=C(C=C4C(=C3)C=NN4)F
Outline: as §1

[10] = compound: CC1=C(C2=C(C=C1)C(=O)C3=CC=CC=C3N2CCCN)C
Outline: as §1

Measured: log2 fold change

VGLL4 isoform 4 (UniProt Q14135)
inactive: [1] 0.042 | [2] 0.056 | [3] -0.097 | [4] 0.103 | [5] 0.016 | [6] 0.057 | [7] 0.157 | [8] 0.04 | [9] -0.049 | [10] -0.242

WASL (UniProt O00401)
inactive: [1] 0.004 | [2] 0.025 | [3] -0.136 | [4] -0.031 | [5] -0.032 | [6] -0.085 | [7] -0.024 | [8] 0.035 | [9] -0.061 | [10] 0.02

WIPI1 (UniProt Q5MNZ9)
inactive: [1] 0.015 | [2] 0.015 | [3] 0 | [4] 0.072 | [5] 0.048 | [6] 0.101 | [7] 0.015 | [8] -0.075 | [9] -0.08 | [10] -0.099

WDR82 (UniProt Q6UXN9)
inactive: [1] -0.094 | [2] -0.018 | [3] 0.118 | [4] 0.034 | [5] 0.036 | [6] 0.08 | [7] -0.009 | [8] 0.116 | [9] -0.013 | [10] 0.031

VPS25 (UniProt Q9BRG1)
inactive: [1] 0.005 | [2] -0.022 | [3] -0.046 | [4] -0.06 | [5] -0.068 | [6] 0.022 | [7] -0.055 | [8] -0.034 | [9] 0 | [10] 0.07

WDR34 (UniProt Q96EX3)
inactive: [1] -0.007 | [2] -0.033 | [3] 0.021 | [4] 0.111 | [5] -0.005 | [6] -0.048 | [7] -0.074 | [8] 0.025 | [9] 0.037

VPS13C (UniProt Q709C8)
inactive: [1] 0.006 | [2] -0.024 | [3] -0.026 | [4] -0.014 | [5] -0.033 | [6] -0.109 | [7] -0.027 | [8] 0.012 | [9] 0 | [10] 0.048

WDTC1 (UniProt Q8N5D0)
inactive: [1] -0.077 | [2] 0.043 | [3] 0.072 | [4] -0.021 | [5] -0.015 | [6] 0.014 | [7] 0.038 | [8] 0.056 | [9] 0.014 | [10] 0.172

WDR89 (UniProt Q96FK6)
inactive: [1] 0.052 | [2] -0.015 | [3] -0.008 | [4] -0.075 | [5] -0.034 | [6] 0.081 | [7] -0.008 | [8] -0.036 | [9] 0.009 | [10] 0

VPS4B (UniProt O75351)
inactive: [1] 0.046 | [2] 0.007 | [3] -0.019 | [4] -0.077 | [5] -0.086 | [6] -0.076 | [7] 0.026 | [8] -0.004 | [9] -0.007 | [10] 0.054

WRAP73 (UniProt Q9P2S5)
inactive: [1] 0.055 | [2] 0.014 | [3] -0.019 | [4] -0.045 | [5] -0.02 | [6] 0.126 | [7] 0.024 | [8] -0.009 | [9] 0.01 | [10] 0

VPS26A (UniProt O75436)
inactive: [1] 0.014 | [2] -0.028 | [3] -0.038 | [4] -0.031 | [5] -0.039 | [6] -0.011 | [7] -0.021 | [8] 0.011 | [9] -0.033 | [10] 0.02

WASHC4 (UniProt Q2M389)
inactive: [1] -0.084 | [2] -0.055 | [3] 0.022 | [4] -0.023 | [5] -0.145 | [6] -0.185 | [7] 0.035 | [8] 0.112 | [9] 0.075 | [10] 0.041

WIPI2 (UniProt Q9Y4P8)
inactive: [1] 0.037 | [2] -0.006 | [3] -0.055 | [4] -0.055 | [5] 0.053 | [6] 0.022 | [7] -0.023 | [8] 0.049 | [9] 0.016 | [10] 0.006

WDR70 (UniProt Q9NW82)
inactive: [1] 0.033 | [2] -0.009 | [3] -0.017 | [4] -0.008 | [5] -0.006 | [6] 0.009 | [7] 0.016 | [8] -0.033 | [9] -0.028 | [10] 0.04

WDR48 (UniProt Q8TAF3)
inactive: [1] 0.029 | [2] 0.019 | [3] 0 | [4] -0.041 | [5] 0.063 | [6] 0.058 | [7] -0.024 | [8] -0.048 | [9] -0.002 | [10] 0.031

VTN (UniProt P04004)
inactive: [1] -0.057 | [2] 0.09 | [3] 0.103 | [4] -0.087 | [5] 0.222 | [6] 0.101 | [7] 0.238 | [8] -0.038 | [9] 0.012 | [10] -0.212

VPS13D (UniProt Q5THJ4)
inactive: [1] -0.201 | [2] -0.025 | [3] -0.108 | [4] 0.076 | [5] 0.067 | [6] 0.286 | [7] 0.087 | [8] 0.254 | [9] 0.011 | [10] 0.006

VPS35 (UniProt Q96QK1)
inactive: [1] 0.059 | [2] -0.009 | [3] -0.014 | [4] -0.017 | [5] -0.079 | [6] -0.072 | [7] -0.066 | [8] -0.019 | [9] 0.026 | [10] 0.008

VPS26C (UniProt O14972)
inactive: [1] -0.109 | [2] 0.071 | [3] -0.042 | [4] -0.015 | [5] -0.05 | [6] -0.073 | [7] 0.051 | [8] 0.046 | [9] 0.197 | [10] 0.046

WDR20 isoform 7 (UniProt Q8TBZ3)
inactive: [1] -0.069 | [2] -0.026 | [3] -0.061 | [4] 0.015 | [5] 0.156 | [6] 0.013 | [7] 0.006 | [8] 0.034 | [9] 0.031 | [10] 0.104

VPS4A (UniProt Q9UN37)
inactive: [1] -0.01 | [2] -0.017 | [3] -0.021 | [4] 0 | [5] -0.059 | [6] -0.146 | [7] 0.023 | [8] -0.018 | [9] 0.006 | [10] 0.027

WDSUB1 (UniProt Q8N9V3)
inactive: [1] -0.013 | [2] 0.027 | [3] 0.003 | [4] -0.028 | [5] -0.066 | [6] 0.053 | [7] -0.011 | [8] -0.025 | [9] 0.017 | [10] 0.022

WDR1 (UniProt O75083)
inactive: [1] 0.015 | [2] 0.002 | [3] -0.006 | [4] -0.028 | [5] -0.041 | [6] -0.049 | [7] -0.034 | [8] -0.011 | [9] -0.026 | [10] 0.066

WBP2 (UniProt Q969T9)
inactive: [1] 0.042 | [2] 0.081 | [3] 0.082 | [4] -0.045 | [5] -0.019 | [6] -0.012 | [7] 0.004 | [8] -0.012 | [9] -0.006 | [10] -0.071

WDR13 (UniProt Q9H1Z4)
inactive: [1] -0.053 | [2] -0.023 | [3] -0.07 | [4] -0.094 | [5] -0.033 | [6] 0.051 | [7] 0.065 | [8] -0.06 | [9] 0.095 | [10] 0.032

VEZF1 (UniProt Q14119)
inactive: [1] -0.24 | [2] -0.026 | [3] 0.063 | [4] -0.017 | [5] 0.122 | [6] 0.116 | [7] 0.071 | [8] 0.127 | [9] 0.004

WDR55 (UniProt Q9H6Y2)
inactive: [1] 0.014 | [2] -0.007 | [3] -0.028 | [4] -0.031 | [5] 0.056 | [6] 0.004 | [7] -0.015 | [8] -0.029 | [9] -0.001 | [10] -0.039

WBP11 (UniProt Q9Y2W2)
inactive: [1] -0.002 | [2] 0.036 | [3] -0.078 | [4] -0.027 | [5] 0.035 | [6] 0.09 | [7] 0.016 | [8] -0.029 | [9] 0.016 | [10] 0.003

Two successive records out of the list so far:
WDR13 (UniProt Q9H1Z4)
inactive: [1] -0.053 | [2] -0.023 | [3] -0.07 | [4] -0.094 | [5] -0.033 | [6] 0.051 | [7] 0.065 | [8] -0.06 | [9] 0.095 | [10] 0.032

VEZF1 (UniProt Q14119)
inactive: [1] -0.24 | [2] -0.026 | [3] 0.063 | [4] -0.017 | [5] 0.122 | [6] 0.116 | [7] 0.071 | [8] 0.127 | [9] 0.004

Later entries.

VWDE (UniProt Q8N2E2)
inactive: [1] -0.052 | [2] -0.02 | [3] 0.032 | [4] 0.045 | [5] -0.05 | [6] 0 | [7] 0.013 | [8] 0.054 | [9] 0.057 | [10] -0.049
